Experimental data: article PMC5622162
These are yes or no findings as the source states them, for the method shown. In cells and extracts the contact can be indirect. Some binding calls cover weakened binding; strength is not graded here.

Assays:
[1] = biological target: T1, calsenilin (CSEN), endogenous in mouse hippocampus or brain (mouse (endogenous in hippocampus)) (UniProt Q9QXT8); assay: co-IP; in vitro: recombinant PLPP/CIN (10 ng/ul) added to crude extracts of PLPP/CIN^-/- mouse brain at 30°C for 1 h; co-precipitation with endogenous CSEN and western blot; only the binder purified
T1 sequence: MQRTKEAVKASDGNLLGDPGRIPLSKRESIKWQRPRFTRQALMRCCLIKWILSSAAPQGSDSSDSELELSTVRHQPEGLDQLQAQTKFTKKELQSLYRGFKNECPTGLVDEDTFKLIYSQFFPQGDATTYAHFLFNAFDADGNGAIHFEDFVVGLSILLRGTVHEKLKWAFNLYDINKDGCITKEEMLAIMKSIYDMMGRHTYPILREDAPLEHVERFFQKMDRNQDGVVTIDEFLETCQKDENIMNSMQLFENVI

[2] = biological target: T1, calsenilin (CSEN), endogenous in mouse hippocampus or brain (mouse (endogenous in hippocampus)); assay: co-IP; in vivo: hippocampal lysates (RIPA buffer with protease and phosphatase inhibitors) of wild-type, PLPP/CIN^Tg and PLPP/CIN^-/- mice; saline or 2 h after kainic acid; PLPP/CIN^-/- mice also with vehicle, IC261 or CKI-7; primary antibody and protein G sepharose at 4°C overnight, western blot
[3] = biological target: T2, Kv4.2 (an A-type K+ channel), endogenous in mouse hippocampus or brain (mouse (endogenous in hippocampus)) (UniProt Q9Z0V2); assay: co-IP; in vitro: crude extracts of PLPP/CIN^-/- mouse brain incubated with recombinant PLPP/CIN (10 ng/ul) or Tris buffer (vehicle) at 30°C for 1 h, without added CK1 or CSEN; co-precipitation and western blot
T2 sequence: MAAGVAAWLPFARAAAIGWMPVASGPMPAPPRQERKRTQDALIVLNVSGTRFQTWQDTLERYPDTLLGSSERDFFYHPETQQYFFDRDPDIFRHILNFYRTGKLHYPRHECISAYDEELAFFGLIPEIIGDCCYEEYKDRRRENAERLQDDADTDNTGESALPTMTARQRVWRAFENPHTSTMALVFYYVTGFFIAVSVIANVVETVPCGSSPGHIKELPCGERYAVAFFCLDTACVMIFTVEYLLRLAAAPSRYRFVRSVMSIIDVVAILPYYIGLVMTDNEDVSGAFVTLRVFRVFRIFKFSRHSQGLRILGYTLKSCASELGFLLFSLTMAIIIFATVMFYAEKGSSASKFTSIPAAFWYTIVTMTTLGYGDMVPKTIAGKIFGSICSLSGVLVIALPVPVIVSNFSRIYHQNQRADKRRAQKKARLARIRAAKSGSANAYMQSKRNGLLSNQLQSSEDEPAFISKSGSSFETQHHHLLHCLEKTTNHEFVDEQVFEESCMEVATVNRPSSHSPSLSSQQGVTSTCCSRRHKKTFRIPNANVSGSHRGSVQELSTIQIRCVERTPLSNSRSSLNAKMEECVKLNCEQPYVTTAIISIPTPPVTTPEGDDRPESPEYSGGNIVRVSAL

[4] = biological target: T2, Kv4.2 (an A-type K+ channel), endogenous in mouse hippocampus or brain (mouse (endogenous in hippocampus)); assay: co-IP; in vivo: hippocampal lysates (RIPA buffer with protease and phosphatase inhibitors) of wild-type, PLPP/CIN^Tg and PLPP/CIN^-/- mice; saline or 2 h after kainic acid; PLPP/CIN^-/- mice also with vehicle, IC261 or CKI-7; primary antibody and protein G sepharose at 4°C overnight, western blot
[5] = biological target: T3, GluN1 (an NMDAR subunit), endogenous in mouse hippocampus or brain (mouse (endogenous in hippocampus)), P35438; assay: co-IP; in vitro: crude extracts of PLPP/CIN^-/- mouse brain incubated with recombinant PLPP/CIN (10 ng/ul) or Tris buffer (vehicle) at 30°C for 1 h, without added CK1 or CSEN; co-precipitation and western blot; conditions: remark: other sources report otherwise
[6] = biological target: T3, GluN1 (an NMDAR subunit), endogenous in …; assay: co-IP; in vivo: hippocampal lysates (RIPA buffer with protease and phosphatase inhibitors) of wild-type, PLPP/CIN^Tg and PLPP/CIN^-/- mice; saline or 2 h after kainic acid; PLPP/CIN^-/- mice also with vehicle, IC261 or CKI-7; primary antibody and protein G sepharose at 4°C overnight, western blot; conditions: remark: other sources report otherwise

B1: recombinant human pyridoxal-5'-phosphate phosphatase/chronophin (PLPP/CIN) (enzyme, UniProt Q96GD0 1-296)
chain: MARCERLRGAALRDVLGRAQGVLFDCDGVLWNGERAVPGAPELLERLARAGKAALFVSNNSRRARPELALRFARLGFGGLRAEQLFSSALCAARLLRQRLPGPPDAPGAVFVLGGEGLRAELRAAGLRLAGDPSAGDGAAPRVRAVLVGYDEHFSFAKLREACAHLRDPECLLVATDRDPWHPLSDGSRTPGTGSLAAAVETASGRQALVVGKPSPYMFECITENFSIDPARTLMVGDRLETDILFGHRCGMTTVLTLTGVSRLEEAQAYLAAGQHDLVPHYYVESIADLTEGLED
[1]
  binding: binds

B2: pyridoxal-5'-phosphate phosphatase/chronophin (PLPP/CIN) in mouse hippocampus (enzyme, UniProt P60487 1-292)
chain: MARCERLRGAALRDVLGQAQGVLFDCDGVLWNGERIVPGAPELLQRLARAGKNTLFVSNNSRRARPELALRFARLGFAGLRAEQLFSSALCAARLLRQRLSGPPDASGAVFVLGGEGLRAELRAAGLRLAGDPGEDPRVRAVLVGYDEQFSFSRLTEACAHLRDPDCLLVATDRDPWHPLSDGSRTPGTGSLAAAVETASGRQALVVGKPSPYMFQCITEDFSVDPARTLMVGDRLETDILFGHRCGMTTVLTLTGVSSLEEAQAYLTAGQRDLVPHYYVESIADLMEGLED
[2]
  binding: binds

B3: calsenilin (CSEN), endogenous in mouse hippocampus or brain (protein, UniProt Q9QXT8 1-256)
chain: T1 sequence
[3]
  binding: binds
[4]
  binding: binds

B4: calsenilin (CSEN), endogenous in mouse hippocampus or brain, Q9QXT8 1-256 (protein)
chain: T1 sequence
[5]
  binding: binds
[6]
  binding: binds
